Experimental data published in paper PMC9226154.

Tests used:
[1] = target: T1, ASNS (asparagine synthetase), form not stated (human) (UniProt P08243); experiment: co-IP; ASNS purified by IgG magnetic beads, co-precipitate detected by blot; cells not given
T1 sequence: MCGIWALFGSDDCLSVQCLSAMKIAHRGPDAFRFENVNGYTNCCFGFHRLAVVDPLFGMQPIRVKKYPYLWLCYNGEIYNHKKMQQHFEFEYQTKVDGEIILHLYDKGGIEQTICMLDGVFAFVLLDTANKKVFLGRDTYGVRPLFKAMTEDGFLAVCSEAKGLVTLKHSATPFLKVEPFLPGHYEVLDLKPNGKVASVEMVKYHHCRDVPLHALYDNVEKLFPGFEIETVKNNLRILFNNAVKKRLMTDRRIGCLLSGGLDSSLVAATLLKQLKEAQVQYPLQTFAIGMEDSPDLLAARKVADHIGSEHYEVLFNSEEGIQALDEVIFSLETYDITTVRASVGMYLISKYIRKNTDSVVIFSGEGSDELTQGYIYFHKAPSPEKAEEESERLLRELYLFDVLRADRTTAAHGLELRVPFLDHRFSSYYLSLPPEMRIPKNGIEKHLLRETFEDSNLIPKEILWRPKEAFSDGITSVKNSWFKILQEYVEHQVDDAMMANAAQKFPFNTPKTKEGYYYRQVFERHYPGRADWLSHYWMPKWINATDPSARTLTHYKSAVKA

[2] = target: T2, ASNS-FLAG (asparagine synthetase) (human) (UniProt P08243); experiment: co-IP; AKT-HA and ASNS-FLAG plasmids transfected into HEK-293T cells for 2 days; AKT or ASNS purified by magnetic beads, co-precipitate detected by blot
T2 sequence: T1 sequence

binding [1]	binding [2]	Substance
binds	–	AKT (as found with ASNS in Fig. 6H) (enzyme)
–	binds	AKT-HA (enzyme)

Results are given in words; binding and its absence hold for the method and conditions named. In cells and extracts the contact can be indirect. Binding can be weak; no strength is given. For some assays here: Tags and fused reporters may be left off the sequences shown.
